Drawing on PubChem BioAssay AID1332 (Southern Research Institute, 2008), this text covers IC50 and CC50 for 53 molecules.

In brackets after ≈: the same amount, converted by molar mass. This is one part of the list. Further columns of the screen follow, without active or inactive calls.

The test in a line: Mycobacterium tuberculosis H37Rv growth inhibition, confirmatory dose response, cytotoxicity (AID 1332).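 As to CC50: Vero cells exposed to compounds for 72 hours.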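 As to IC50: bacteria incubated 7 days before adding Alamar blue readout reagent.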 Particulars: M. tuberculosis H37Rv growth inhibition; CC50: measured here: Vero cell cytotoxicity; IC50: measured here: IC50 H37Rv replicates.
By IC50 is commonly meant the concentration needed to halve the response being measured. A low value points to higher potency. The molecule `O=c1c2ccccc2[se]n1-c1ccccc1` gave an IC50 of 2.02 µg/mL (≈ 7.38 µM).

`CCCNC(C)(C)COC(=O)c1ccccc1`: the IC50 was > 20 µg/mL.

On to `CCC1(C)CC(=O)NC1=O` (configuration not stated), for which the IC50 was > 20 µg/mL.

For the molecule `CN(C)CCOC(=O)C(c1ccccc1)C1(O)CCCC1` (configuration not stated), the IC50 is > 20 µg/mL.

In the case of `CC1=CC(=O)C2=C(C)CC[C@@H]3[C@H](OC(=O)[C@H]3C)[C@@H]12`, the concentration for half-maximal inhibition (IC50) was > 20 µg/mL.

Regarding `CCc1cc(Cl)c(OC)c(C(=O)NC[C@@H]2CCCN2CC)c1O`, the IC50 is > 20 µg/mL.

With `CCC(=O)O[C@]1(C(=O)SCF)[C@H](C)C[C@H]2[C@@H]3C[C@H](F)C4=CC(=O)C=C[C@]4(C)[C@@]3(F)[C@@H](O)C[C@@]21C`, the half-inhibitory concentration (IC50) is > 20 µg/mL.

Regarding `Nc1[nH]c(=O)ncc1F`, the IC50 is > 20 µg/mL.

With `NCC(O)c1ccc(O)cc1` (configuration not stated), the IC50 is > 20 µg/mL.

In the case of `NC(N)=NCCCCN=C(N)N`, the IC50 is > 20 µg/mL.

Consider `CC[N+](C)(CC)CCC[n+]1c(-c2ccccc2)c2cc(N)ccc2c2ccc(N)cc21`, for which the IC50 was > 20 µg/mL.

Consider `O=C(O)c1ccccc1Nc1cccc(C(F)(F)F)c1`, for which the IC50 was > 20 µg/mL.

Regarding `O=C1O[C@H]([C@@H](O)CO)C(O)=C1O`, the IC50 was > 20 µg/mL.

For `O=c1c(O)c(-c2ccc(O)c(O)c2)oc2cc(O)cc(O)c12`, the IC50 was > 20 µg/mL.

Broadly, the CC50 is the concentration that lowers cell viability or growth by half. A high value points to better tolerance by the cells. On to `CN(C)[C@@H]1CCCCC(OC2c3ccccc3CCc3ccccc32)C1` (some centres not stated), for which the CC50 is > 6 µg/mL and the IC50 was > 18.7 µg/mL.

On to `COCCc1ccc(OCC(O)CNC(C)C)cc1` (configuration not stated), for which the IC50 is > 20 µg/mL.

Consider `CCCCC[C@H](O)/C=C/[C@H]1[C@H](O)CC(=O)[C@@H]1CCCCCCC(=O)O`, for which the IC50 is > 20 µg/mL.

On to `CCOc1ccc(NC(C)=O)cc1`, for which the IC50 is > 20 µg/mL.

On to `CC(C(=O)O)c1ccc(C(=O)c2cccs2)cc1` (configuration not stated), for which the IC50 is > 20 µg/mL.

For the molecule `C#C[C@]1(O)CC[C@H]2[C@@H]3CCC4=C(CCC(=O)C4)[C@H]3CC[C@@]21C`, the IC50 was > 20 µg/mL.

Turning to `NS(=O)(=O)c1cc2c(cc1Cl)NC(CC1CCCC1)NS2(=O)=O` (configuration not stated), the 50% inhibitory concentration (IC50) is > 20 µg/mL.

For the molecule `CC(C)(C)NCC(O)c1cc(O)cc(O)c1` (configuration not stated), the IC50 is > 20 µg/mL.

As to `CC[N+](CC)(CC)CCOc1cccc(OCC[N+](CC)(CC)CC)c1OCC[N+](CC)(CC)CC`, the IC50 was > 20 µg/mL.

For `CNC(C)(C)Cc1ccccc1`, the concentration for half-maximal inhibition (IC50) is > 20 µg/mL.

As to `CC/C(=C(\c1ccccc1)c1ccc(OCCN(C)C)cc1)c1ccccc1`, the CC50 is > 6 µg/mL and the IC50 was found to be 4.89 µg/mL (≈ 13.2 µM).

With `CCc1oc2ccccc2c1C(=O)c1cc(Br)c(O)c(Br)c1`, the IC50 was > 20 µg/mL.

On to `NC(=O)NC1NC(=O)NC1=O` (configuration not stated), for which the half-maximal inhibitory concentration (IC50) was > 20 µg/mL.

For the molecule `CCCCC[C@H](O)/C=C/[C@@H]1[C@@H](C/C=C/CCCC(=O)O)[C@@H](O)C[C@H]1O`, the IC50 is > 20 µg/mL.

As for `Cc1ccccc1C(OCCN(C)C)c1ccccc1` (configuration not stated), the IC50 was > 20 µg/mL.

In the case of `COC(=O)C1=C(C)NC(C)=C(C(=O)OCCN(C)Cc2ccccc2)C1c1cccc([N+](=O)[O-])c1` (configuration not stated), the IC50 is > 20 µg/mL.

Regarding `COc1ccccc1N1CCN(CCCCNC(=O)c2ccc3ccccc3c2)CC1`, the IC50 is > 20 µg/mL.

For the molecule `CNCC(O)c1ccc(O)cc1` (configuration not stated), the half-inhibitory concentration (IC50) was > 20 µg/mL.

Turning to `Cc1cnc(C(=O)NCCc2ccc(S(=O)(=O)NC(=O)NC3CCCCC3)cc2)cn1`, the IC50 was > 20 µg/mL.

For the molecule `CN1CCOC(c2ccccc2)c2ccccc2C1` (configuration not stated), the IC50 is > 20 µg/mL.

Regarding `CCCCNc1ccc(C(=O)OCCN(C)C)cc1`, the IC50 is > 20 µg/mL.

For the molecule `COc1ccccc1N1CCN(CCCNc2cc(=O)n(C)c(=O)n2C)CC1`, the IC50 is > 20 µg/mL.

For `CCNCC(O)c1cccc(O)c1` (configuration not stated), the IC50 is > 20 µg/mL.

Turning to `O=C(/C=C/C=C/c1ccc2c(c1)OCO2)N1CCCCC1`, the IC50 was > 20 µg/mL.

On to `CCN(CC)Cc1cc(Nc2ccnc3cc(Cl)ccc23)ccc1O`, for which the cytotoxic concentration (CC50) was > 6 µg/mL and the IC50 was > 20 µg/mL.

On to `CC(=O)N[C@@H](CC(=O)N[C@H](CCC(=O)O)C(=O)O)C(=O)O`, for which the IC50 is > 20 µg/mL.

As for `CC(C)NCC(O)c1cc(O)cc(O)c1` (configuration not stated), the IC50 was > 20 µg/mL.

As to `C#CCN(C)CCCOc1ccc(Cl)cc1Cl`, the IC50 is > 20 µg/mL.

Regarding `O=C(O)CN(CCN(CC(=O)O)CC(=O)O)CCN(CC(=O)O)CC(=O)O`, the IC50 was > 20 µg/mL.

With `Cn1c(=O)c2c(ncn2CCO)n(C)c1=O`, the IC50 is > 20 µg/mL.

For `CNCCCN1c2ccccc2CCc2ccccc21`, the IC50 was > 19.2 µg/mL.

On to `Cc1cccc(Nc2ccccc2C(=O)O)c1C`, for which the IC50 is > 20 µg/mL.

`C[n+]1ccccc1/C=N/O`: the half-inhibitory concentration (IC50) is > 20 µg/mL.

On to `CCN(CC)CCNC(=O)COc1ccc(OC)cc1`, for which the IC50 is > 20 µg/mL.

In the case of `Clc1ccc(C(Cn2ccnc2)OCc2csc3c(Cl)cccc23)c(Cl)c1` (configuration not stated), the CC50 was > 6 µg/mL and the IC50 was found to be 2.41 µg/mL (≈ 5.51 µM).

On to `CC(=O)OCC1=C(C(=O)O)N2C(=O)[C@@H](NC(=O)Cc3cccs3)[C@H]2SC1`, for which the IC50 is > 20 µg/mL.

In the case of `CC1(C)S[C@@H]2[C@H](NC(=O)Cc3ccccc3)C(=O)N2[C@H]1C(=O)O`, the IC50 was > 20 µg/mL.

For the molecule `O=C1CCC(N2C(=O)c3ccccc3C2=O)C(=O)N1` (configuration not stated), the IC50 was > 20 µg/mL.

Turning to `NCC[C@H](O)C(=O)N[C@@H]1C[C@H](N)[C@@H](O[C@H]2O[C@H](CN)[C@@H](O)[C@H](O)[C@H]2O)[C@H](O)[C@H]1O[C@H]1O[C@H](CO)[C@@H](O)[C@H](N)[C@H]1O`, the IC50 is < 0.04 µg/mL.
